Measured values reported in paper PMC6925144, “A prospective compound screening contest identified broader inhibitors for Sirtuin 1” (Scientific Reports, 2019).
Whole data set: some 3,200 compounds, median “TSA(without NAD+) / Primary screening (TSA) / delta Tm (K)” near -0.07, cut for the highest 2% near 0.37. The list shows a part of the results.

By UniProt entry, the sequences of proteins in these tests, tags left out. Residues count along the entry.
UniProt Q96EB6, 2-747 limits assumed: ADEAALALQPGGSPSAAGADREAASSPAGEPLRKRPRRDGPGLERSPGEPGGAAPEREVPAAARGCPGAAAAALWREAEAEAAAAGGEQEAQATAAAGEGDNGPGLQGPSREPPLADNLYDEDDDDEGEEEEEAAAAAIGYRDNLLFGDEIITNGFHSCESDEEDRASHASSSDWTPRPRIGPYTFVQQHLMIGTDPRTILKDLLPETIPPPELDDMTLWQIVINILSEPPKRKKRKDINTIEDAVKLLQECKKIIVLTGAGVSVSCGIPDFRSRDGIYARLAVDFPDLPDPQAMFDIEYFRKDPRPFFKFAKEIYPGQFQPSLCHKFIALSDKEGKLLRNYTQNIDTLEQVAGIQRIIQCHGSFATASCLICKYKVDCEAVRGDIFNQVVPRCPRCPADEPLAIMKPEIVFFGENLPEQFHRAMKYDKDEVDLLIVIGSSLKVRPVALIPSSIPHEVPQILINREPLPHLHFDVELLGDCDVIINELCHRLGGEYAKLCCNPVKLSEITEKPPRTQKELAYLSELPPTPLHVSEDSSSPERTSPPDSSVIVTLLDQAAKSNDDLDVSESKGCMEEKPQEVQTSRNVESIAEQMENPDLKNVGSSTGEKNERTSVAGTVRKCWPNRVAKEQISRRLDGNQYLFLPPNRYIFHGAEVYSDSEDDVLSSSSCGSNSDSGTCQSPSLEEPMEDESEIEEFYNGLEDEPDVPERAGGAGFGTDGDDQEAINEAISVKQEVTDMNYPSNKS

Molecular target: NAD-dependent deacetylase Sirtuin 1 (human, UniProt Q96EB6)
Assay: primary screen, delta tm
Set-up: single well (n = 1)
Settings: 10 µM
Procedure, shortened: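 Thermal shift of Sirtuin 1 measured without NAD+, compound at 10 µM (n = 1); value is ΔTm, with hits defined as ΔTm > 0.45 K or < −1.5 K. Hits retested at 5, 10, 20 µM (n = 4) and counterscreened on bovine carbonic anhydrase and ABL1 SH2 domain.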

| SMILES | TSA(without NAD+) / Primary screening (TSA) / delta Tm (K) |
| --- | --- |
| NC(=O)C1CCN(c2ncnc3c2c(-c2ccccc2)cn3-c2cccc(C(F)(F)F)c2)CC1 | -0.07 K |
| Cc1cc(C(=O)COC(=O)C23CC4CC(CC(O)(C4)C2)C3)c(C)n1-c1cccc(S(=O)(=O)N2CCOCC2)c1 | -0.03 K |
| CNC(=O)COc1cc(F)ccc1F | -0.03 K |
| CNC(=O)CCNc1ccc2nnc(C(F)(F)F)n2n1 | 0.03 K |
| CC1CCC/C(=N/NC(=O)c2ccc(Cn3nnc(-c4ccccc4)n3)cc2)C1 (stereo not shown) | -0.08 K |
| Cc1ccc(N(C)S(=O)(=O)c2cccc(C(=O)OC3CCOC3=O)c2)cc1 (stereo not shown) | -0.07 K |
| Cc1nc2c3ccccc3nc(SCc3nc(N)nc(Nc4ccc(F)cc4)n3)n2n1 | 0.18 K |
| CC1(C)NC(=O)N(CC(=O)Nc2sc3c(c2-c2nc4ccccc4[nH]2)CCCC3)C1=O | 0.26 K |
| Cc1ccc(N(C)S(=O)(=O)c2cccc(C(=O)Nc3cccc(C#N)c3)c2)cc1 | 0.43 K |
| CC1CC1CN (stereo not shown) | -0.13 K |
| O=C(COc1ncnc2sc3c(c12)CCCC3)N1CCc2ccccc21 | 0.07 K |
| Cc1cc(C(=O)COC(=O)C23CC4CC(CC(Cl)(C4)C2)C3)c(C)n1Cc1ccc2c(c1)OCO2 | -0.04 K |
| COC(OC)C(C)N (stereo not shown) | -0.03 K |
| COc1cc(CN(C)C(=O)c2ccc(CNC(N)=O)cc2)ccc1OCc1ccccc1 | -0.14 K |
| Cc1c(C)n(-c2ccc(Cl)cc2)c2ncnc(N)c12 | -0.24 K |
| CCC(C)(C)C(=O)N1CCc2cnccc21 | -0.18 K |
| O=c1onc(-c2cnccn2)n1Cc1nc2cc([N+](=O)[O-])ccc2o1 | -0.12 K |
| O=C(C1CCCc2ccccc21)N1CCCC(c2nc3ccccc3o2)C1 (stereo not shown) | -0.02 K |
| C=CCn1c(SCC(=O)Nc2ccc(C(N)=O)cc2)nnc1-c1ccncc1 | 0.06 K |
| Cc1ccnc(NC(=O)C2CCN(c3ncnc4scc(-c5ccc(F)cc5)c34)CC2)c1 | -0.18 K |

| SMILES | TSA(without NAD+) / Primary screening (TSA) / delta Tm (K) |
| --- | --- |
| O=C(O)CCc1ccc(S(=O)(=O)Nc2ccc3[nH]c(-c4ccc(F)cc4)nc3c2)cc1 | -0.03 K |
| Cc1ccc(-c2csc3ncn(CC(=O)NCC(=O)Nc4ccc(F)c(F)c4F)c(=O)c23)s1 | 0.07 K |
| Cc1c(C=C2C(=O)NC(=S)NC2=O)c2ccccn2c1C(=O)c1cccc([N+](=O)[O-])c1 | 0.06 K |
| COc1cccc(/C=N/c2ccc(C)cc2)c1OC | -0.18 K |
| COc1ccc(Br)cc1C=C1C(=O)c2ccccc2C1=O | 0.07 K |
| O=C(Nc1ccc2[nH]c(=O)[nH]c2c1)C1c2ccccc2Oc2ccccc21 | -0.04 K |
| Cc1nc(CSc2ccccc2C(=O)NCc2ccc(Cn3ccnc3)cc2)no1 | -0.08 K |
| CCCOc1ccc(C(=O)C2=C(O)C(=O)N(CCN3CCOCC3)C2c2ccccn2)cc1 (stereo not shown) | 0.13 K |
| Cc1ccc(-c2nn(-c3ccccc3)cc2C=C2C(=O)NC(=S)NC2=O)o1 | 0.13 K |
| COc1cc(NC(=O)c2cccs2)c(C(=O)OCC(=O)NC23CC4CC(CC(C4)C2)C3)cc1OC | 0.18 K |
| Cc1cc(C)c(CCNC(=O)NC2CCCNC2=O)c(C)c1 (stereo not shown) | -0.12 K |
| CC(C)Oc1ccc(-c2nc(C(=O)OC3CCCN(Cc4ncccn4)C3)cs2)cc1 (stereo not shown) | -0.02 K |
| COc1ccc(/C=C/C(=O)NCCn2c(C)nc3ccccc32)cc1 | -0.18 K |
| COc1ccc(C2CNC(c3ccccc3)c3[nH]c4ccccc4c32)cc1 (stereo not shown) | -0.34 K |
| O=C(Nc1ccc(N2CCCCC2)cc1)c1cc(Cl)nc2ccccc12 | -0.13 K |
| COc1ccc(N(C)S(=O)(=O)c2cccc(C(=O)Nc3cccc4ccccc34)c2)cc1 | -0.13 K |
| O=C(Nc1cccc(S(=O)(=O)NCc2ccco2)c1)c1ccccc1OCc1ccccc1 | -0.03 K |
| Cc1cccc([N+](=O)[O-])c1N | -0.18 K |
| O=C(O)c1c2ccccc2cc2ccccc12 | -0.24 K |
| Cc1nc2ccc(C(=O)NC(Cc3ccccc3)C(N)=O)cc2nc1C (stereo not shown) | -0.01 K |

| SMILES | TSA(without NAD+) / Primary screening (TSA) / delta Tm (K) |
| --- | --- |
| CCCc1noc(CSc2nccn2Cc2ccccn2)n1 | -0.11 K |
| Cc1ccc(C)c(CSCc2nc3ccsc3c(=O)[nH]2)c1 | -0.03 K |
| COC(=O)c1cc2c(C)nn(-c3ccc(F)cc3)c2s1 | 0.16 K |
| Cc1ccc(NC=C2C(=O)NC(=S)NC2=O)cc1 | -0.23 K |
| CC(=O)C(C)N (stereo not shown) | -0.21 K |
| COc1ncnc2c1CN(C(C)C(=O)N1CCc3ccccc31)CC2 (stereo not shown) | -0.03 K |
| CCOc1nc2cc(C(=O)OCCC3CCCCN3C(=O)c3cccn3C)ccc2[nH]1 (stereo not shown) | -0.13 K |
| COC(=O)c1sc2cccc(F)c2c1CNC(=O)Cn1cnnn1 | 0.15 K |
| CC(Oc1ccc(C#N)cc1)C(=O)NC(C)c1ccc2ccccc2c1 (stereo not shown) | -0.07 K |
| COc1ccc(C(=O)C(C)OC(=O)c2c(C)noc2C)cc1 (stereo not shown) | -0.21 K |
| C=CCNC(=O)c1ccc(NC(=O)N2CCC(C(=O)Nc3ccccc3OC)CC2)cc1 | 0.06 K |
| Cc1ccc(/C=C/S(=O)(=O)NCC(=O)Nc2ccccc2Cc2ccccc2)cc1 | -0.03 K |
| CC(C)Oc1ccc(S(=O)(=O)N2CCOCC2)cc1NC(=O)C1=COCCO1 | -0.12 K |
| NC(=O)c1ccccc1OCc1cccc(COc2ccccc2C(N)=O)c1 | 0.02 K |
| CCOc1ccc(S(=O)(=O)N(CC(=O)NC23CC4CC(CC(C4)C2)C3)Cc2ccccc2)cc1 | 0.05 K |
| COc1cc(C=C2C(=O)NC(=S)NC2=O)cc(Br)c1OC | -0.08 K |
| CC(C)c1ccc2c(c1)CCCN2C(=O)CCn1cnc2ccccc2c1=O | -0.34 K |
| CCCCN(C(=O)c1cccc(S(=O)(=O)N(C)c2ccc(C)cc2)c1)c1c(N)n(CC(C)C)c(=O)[nH]c1=O | 0.09 K |

Reformatted: results already given.
SMILES | TSA(without NAD+) / Primary screening (TSA) / delta Tm (K)
Cc1ccc(N(C)S(=O)(=O)c2cccc(C(=O)Nc3cccc(C#N)c3)c2)cc1 | 0.43 K
COc1ccc(Br)cc1C=C1C(=O)c2ccccc2C1=O | 0.07 K
